The values that follow come from patent US6689868 (Dana-Farber, dated 2004).

The assay has as its target T1, protein tyrosine phosphatase PTP-PEST (endogenous, activated human T cells) (human) (UniProt Q05209).
T1 sequence (looked up): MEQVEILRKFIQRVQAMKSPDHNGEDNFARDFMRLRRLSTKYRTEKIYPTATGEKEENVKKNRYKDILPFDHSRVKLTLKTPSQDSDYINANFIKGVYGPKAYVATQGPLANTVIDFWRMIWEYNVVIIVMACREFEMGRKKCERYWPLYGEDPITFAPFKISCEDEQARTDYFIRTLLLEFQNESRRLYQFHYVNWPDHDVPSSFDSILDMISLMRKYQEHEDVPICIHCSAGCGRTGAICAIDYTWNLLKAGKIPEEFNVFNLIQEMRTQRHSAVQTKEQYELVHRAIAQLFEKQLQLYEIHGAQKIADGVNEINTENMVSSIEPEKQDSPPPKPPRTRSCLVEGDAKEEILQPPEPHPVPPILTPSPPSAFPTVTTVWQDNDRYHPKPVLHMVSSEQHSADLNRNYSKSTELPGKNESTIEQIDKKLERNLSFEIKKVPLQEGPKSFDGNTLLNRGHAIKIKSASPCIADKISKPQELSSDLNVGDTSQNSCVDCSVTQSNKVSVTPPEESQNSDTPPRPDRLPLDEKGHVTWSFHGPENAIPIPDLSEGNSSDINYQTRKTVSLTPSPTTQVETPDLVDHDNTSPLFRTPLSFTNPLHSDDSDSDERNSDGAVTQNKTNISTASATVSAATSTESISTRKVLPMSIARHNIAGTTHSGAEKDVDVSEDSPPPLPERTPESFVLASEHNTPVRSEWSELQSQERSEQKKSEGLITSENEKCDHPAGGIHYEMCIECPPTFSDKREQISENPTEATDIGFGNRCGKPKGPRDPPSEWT
Put plainly: co-immunoprecipitation with 8C93D8-Sepharose from activated human T cell lysates, anti-PTP-PEST Western blot; prevented by preincubation with soluble 8C93D8, not by mouse IgG. In general terms: Immunoblotting shows a protein as a band on a membrane.

These are yes or no findings as the source states them, for the method shown. Binding seen in cells or lysates may run through a third protein. Some results given as binding are weak or reduced against the parent protein; the word gives no strength.

B1: CD2BP1 protein (endogenous, activated human T cells) (other)
chain: MMPQLQFKDAFWCRDFTAHTGYEVLLQRLLDGRKMCKDMEELLRQRAQAEERYGKELVQIARKAGGQTEINSLRASFDSLKQQMENVGSSHIQLALTLREELRSLEEFRERQKEQRKKYEAVMDRVQKSKLSLYKKAMESKKTYEQKCRDADDAEQAFERISANGHQKQVEKSQNKARQCKDSATEAERVYRQSIAQLEKVRAEWEQEHRTTCEAFQLQEFDRLTILRNALWVHSNQLSMQCVKDDELYEEVRLTLEGCSIDADIDSFIQAKSTGTEPPAPVPYQNYYDREVTPLTSSPGIQPSCGMIKRFSGLLHGSPKTTSLAASAASTETLTPTPERNEGVYTAIAVQEIQGNPASPAQEYRALYDYTAQNPDELDLSAGDILEVILEGEDGWWTVERNGQRGFVPGSYLEKL
notes: Endogenous protein
On to B1, for which the binding entry is “binds”.
